According to US11679102B2, “Method for inhibiting virus infection and replication” (Chang Gung University, priority 2020, dated 2023):
For at least one compound, name, drawing or mass did not settle the structure.

How the values were obtained:
[1] = system: CV-A6-infected RD cells; assay type: cell-based, human; conditions: wild-type RD cells pretreated 1 hour with ferrostatin-1 100 μM or troglitazone 20 μM, then CV-A6 m.o.i. 0.01 for 36 hours; vs mock-infected; FIG. 11 lower panel
[2] = system: CV-A6; assay type: cell-based, Coxsackie virus A6; conditions: pretreated 1 hour at 0-120 μM, CV-A6 m.o.i. 0.01, 36 h.p.i.; FIG. 12
[3] = system: CV-A6; assay type: cell-based, Coxsackie virus A6; conditions: pretreated 1 hour with ferrostatin-1 100 μM or troglitazone 20 μM; m.o.i. 0.01; 24, 36, 48 h.p.i.; FIG. 14

## Cc1c(C)c2c(c(C)c1O)CCC(C)(COc1ccc(CC3SC(=O)NC3=O)cc1)O2 (stereo not drawn) [troglitazone]
[1]
  CV-A6-induced increase in lipid peroxidation level (relative BODIPY 581/591-C11 level): significantly diminished
[2]
  Cell viability of CV-A6-infected RD cells: increasing cell viability
[3]
  Viral yields (virus titer) of CV-A6 in infected RD cells vs DMSO control group: significantly lower
